Paper PMC12431250
These are yes or no findings as the source states them, for the method shown. In cells and extracts the contact can be indirect. Some entries that bind do so weakly or less than the wild type.

Protein sequences, listed by entry. Tags and fused reporters are not part of them. Residues count along the entry.
UniProt P05107, residues 23-769: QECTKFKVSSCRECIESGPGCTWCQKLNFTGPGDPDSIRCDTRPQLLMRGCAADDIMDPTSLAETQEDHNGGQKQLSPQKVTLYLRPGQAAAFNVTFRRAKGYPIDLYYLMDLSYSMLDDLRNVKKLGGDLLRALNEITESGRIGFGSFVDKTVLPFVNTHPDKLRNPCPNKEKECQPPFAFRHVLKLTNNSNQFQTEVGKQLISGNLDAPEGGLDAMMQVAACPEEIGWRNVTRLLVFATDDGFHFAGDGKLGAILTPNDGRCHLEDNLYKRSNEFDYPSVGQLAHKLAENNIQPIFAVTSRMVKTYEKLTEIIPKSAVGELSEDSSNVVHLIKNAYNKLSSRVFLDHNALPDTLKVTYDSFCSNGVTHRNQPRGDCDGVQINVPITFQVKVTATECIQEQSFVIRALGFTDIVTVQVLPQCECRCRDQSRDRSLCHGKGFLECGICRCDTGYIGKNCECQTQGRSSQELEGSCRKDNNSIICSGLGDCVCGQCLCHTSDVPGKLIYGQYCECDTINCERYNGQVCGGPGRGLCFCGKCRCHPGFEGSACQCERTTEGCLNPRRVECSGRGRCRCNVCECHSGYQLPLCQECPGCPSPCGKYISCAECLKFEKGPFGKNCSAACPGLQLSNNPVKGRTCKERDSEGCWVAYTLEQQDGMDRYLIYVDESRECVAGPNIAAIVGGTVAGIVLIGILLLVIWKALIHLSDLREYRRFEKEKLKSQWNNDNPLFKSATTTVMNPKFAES

Molecular target: T1, C3a anaphylatoxin chemotactic receptor (C3AR1) (UniProt Q16581)
T1 sequence: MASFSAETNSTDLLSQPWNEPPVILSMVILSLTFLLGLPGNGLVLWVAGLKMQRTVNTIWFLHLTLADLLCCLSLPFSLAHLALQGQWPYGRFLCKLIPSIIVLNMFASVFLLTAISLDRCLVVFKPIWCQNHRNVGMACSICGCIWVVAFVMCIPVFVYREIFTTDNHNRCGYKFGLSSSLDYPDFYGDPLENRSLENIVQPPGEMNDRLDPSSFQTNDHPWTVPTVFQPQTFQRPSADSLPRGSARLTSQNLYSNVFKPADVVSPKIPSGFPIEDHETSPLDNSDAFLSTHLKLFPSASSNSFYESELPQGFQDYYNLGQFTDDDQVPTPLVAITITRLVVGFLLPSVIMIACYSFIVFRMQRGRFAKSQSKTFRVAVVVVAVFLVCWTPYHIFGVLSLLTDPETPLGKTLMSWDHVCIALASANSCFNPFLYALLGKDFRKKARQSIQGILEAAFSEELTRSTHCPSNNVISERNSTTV
Assay: co-IP; Co-IP of C3AR1 and ITGB2 (Fig 4B); cells, antibodies, bait and conditions not described

“Integrin subunit beta 2 (ITGB2) (from UniProt P05107 23-769)” was tested, and the binding was “binds”.
